Assay results taken from PubChem BioAssay AID250 (DTP/NCI, 2004).
The list is a part of this screen's results and no random one: it gathers tests that were run many times, whatever their T/C, doses with no T/C, and many T/C values between a quarter and a half above the control. Other doses and runs of a compound stand elsewhere. T/C gives the treated animals as a percentage of the vehicle group. For survival time, this PubChem deposit counts one and a half times the control or more as active, and values a quarter to a half above the control carry no call in these data; other NCI protocols may use other cut-offs. Schedule codes are those of the source, taken here to give the interval after Q, in days (D) or hours (H), and the number of doses after X. Some entries hold several experiments; the results are listed from low to high. Some T/C values carry the count of animals alive at the toxicity check (mostly the fifth day); without a count, all were alive then.

Tests used:
[1] = test system: BDF1 mice, L1210 leukemia sc, survival T/C; assay: NCI In Vivo Anticancer Drug Screen. Data for tumor model L1210 Leukemia (subcutaneous) in B6D2F1 (BDF1) mice; conditions: T/C endpoint: median survival time, vehicle: Klucel (hydroxypropylcellulose) (HPC), higher T/C = longer survival
How it was run: (§1)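 Transplantable tumor-bearing mice; survival or tumor size recorded; result = T/C, treated vs vehicle control.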

[2] = test system: BDF1 mice, L1210 leukemia sc; assay: as above; conditions: T/C endpoint: median survival time, higher T/C = longer survival
How it was run: as §1

Which results are given for `CC(CN1CC(=O)NC(=O)C1)N1CC(=O)NC(=O)C1` (stereo unspecified)?
T/C ([1]; dose: 100.0 mg/kg/injection, schedule: Q04DX003 (sc), evaluated on day 7): 107 % of control; T/C ([1]; dose: 100.0 mg/kg/injection, schedule: Q04DX003 (sc), evaluated on day 30): 120 % of control; T/C ([1]; dose: 100.0 mg/kg/injection, schedule: Q04DX003 (sc), evaluated on day 45): 105 % of control; T/C ([1]; dose: 180.0 mg/kg/injection, schedule: Q04DX003 (oral), evaluated on day 5): 177 % of control; T/C ([1]; dose: 180.0 mg/kg/injection, schedule: Q04DX003 (oral), evaluated on day 34): 172 % of control; T/C ([1]; dose: 180.0 mg/kg/injection, schedule: Q04DX003 (oral), evaluated on day 45): 150 % of control; T/C ([1]; dose: 200.0 mg/kg/injection, schedule: Q04DX003 (sc), evaluated on day 7): 122 % of control; T/C ([1]; dose: 200.0 mg/kg/injection, schedule: Q04DX003 (sc), evaluated on day 45): 121 % of control; T/C ([1]; dose: 300.0 mg/kg/injection, schedule: Q04DX003 (oral), evaluated on day 5): 164 and 211 % of control; T/C ([1]; dose: 300.0 mg/kg/injection, schedule: Q04DX003 (oral), evaluated on day 34): 200 % of control; T/C ([1]; dose: 300.0 mg/kg/injection, schedule: Q04DX003 (oral), evaluated on day 45): 166 % of control; T/C ([1]; dose: 400.0 mg/kg/injection, schedule: Q04DX003 (sc), evaluated on day 7): 163 and 194 % of control; T/C ([1]; dose: 400.0 mg/kg/injection, schedule: Q04DX003 (sc), evaluated on day 30): 155 % of control; T/C ([1]; dose: 400.0 mg/kg/injection, schedule: Q04DX003 (sc), evaluated on day 45): 168 % of control; T/C ([1]; dose: 500.0 mg/kg/injection, schedule: Q04DX003 (oral), evaluated on day 5): 258 % of control; T/C ([1]; dose: 500.0 mg/kg/injection, schedule: Q04DX003 (oral), evaluated on day 34): 250 % of control; T/C ([1]; dose: 800.0 mg/kg/injection, schedule: Q04DX003 (sc), evaluated on day 7): 110 and 114 % of control; T/C ([1]; dose: 800.0 mg/kg/injection, schedule: Q04DX003 (sc), evaluated on day 30): 105 % of control; T/C ([1]; dose: 800.0 mg/kg/injection, schedule: Q04DX003 (sc), evaluated on day 45): 115 % of control; T/C ([2]; dose: 2.5 mg/kg/injection, schedule: Q03HX024 (sc), vehicle: Klucel (hydroxypropylcellulose) (HPC), evaluated on day 7): 137 % of control; T/C ([2]; dose: 2.5 mg/kg/injection, schedule: Q03HX024 (sc), vehicle: Klucel (hydroxypropylcellulose) (HPC), evaluated on day 30): 140 % of control; T/C ([2]; dose: 5.0 mg/kg/injection, schedule: Q03HX024 (sc), vehicle: Klucel (hydroxypropylcellulose) (HPC), evaluated on day 7): 141 % of control; T/C ([2]; dose: 5.0 mg/kg/injection, schedule: Q03HX024 (sc), vehicle: Klucel (hydroxypropylcellulose) (HPC), evaluated on day 27): 145 % of control; T/C ([2]; dose: 5.0 mg/kg/injection, schedule: Q03HX024 (sc), vehicle: Klucel (hydroxypropylcellulose) (HPC), evaluated on day 30): 140 % of control; T/C ([2]; dose: 12.5 mg/kg/injection, schedule: Q01DX009 (ip), vehicle: steroid suspending solution): 130 % of control; T/C ([2]; dose: 12.5 mg/kg/injection, schedule: Q01DX009 (sc), vehicle: steroid suspending solution): 130 % of control; T/C ([2]; dose: 25.0 mg/kg/injection, schedule: Q01DX009 (ip), vehicle: steroid suspending solution): 140 % of control; T/C ([2]; dose: 25.0 mg/kg/injection, schedule: Q01DX009 (sc), vehicle: steroid suspending solution): 140 % of control; T/C ([2]; dose: 32.0 mg/kg/injection, schedule: Q01DX009 (ip), vehicle: Klucel (hydroxypropylcellulose) (HPC), evaluated on day 20): 127 % of control; T/C ([2]; dose: 32.0 mg/kg/injection, schedule: Q01DX009 (ip), vehicle: Klucel (hydroxypropylcellulose) (HPC), evaluated on day 30): 143 % of control; T/C ([2]; dose: 32.0 mg/kg/injection, schedule: Q01DX009 (ip), vehicle: other): 132 % of control [8 of 10 alive]; T/C ([2]; dose: 39.0 mg/kg/injection, schedule: Q01DX009 (sc), vehicle: Klucel (hydroxypropylcellulose) (HPC)): 145 % of control; T/C ([2]; dose: 50.0 mg/kg/injection, schedule: Q01DX009 (sc), vehicle: steroid suspending solution): 135 % of control; T/C ([2]; dose: 64.0 mg/kg/injection, schedule: Q01DX009 (ip), vehicle: Klucel (hydroxypropylcellulose) (HPC)): 145 % of control; T/C ([2]; dose: 64.0 mg/kg/injection, schedule: Q01DX009 (ip), vehicle: other): 145 % of control; T/C ([2]; dose: 100.0 mg/kg/injection, schedule: Q04DX003 (ip), vehicle: Klucel (hydroxypropylcellulose) (HPC)): 131 % of control; T/C ([2]; dose: 100.0 mg/kg/injection, schedule: Q04DX003 (ip), vehicle: other): 139 % of control; T/C ([2]; dose: 100.0 mg/kg/injection, schedule: Q04DX003 (ip), vehicle: steroid suspending solution, evaluated on day 26): 135 % of control; T/C ([2]; dose: 100.0 mg/kg/injection, schedule: Q04DX003 (ip), vehicle: steroid suspending solution, evaluated on day 33): 140 % of control; T/C ([2]; dose: 100.0 mg/kg/injection, schedule: Q04DX003 (sc), vehicle: Klucel (hydroxypropylcellulose) (HPC), evaluated on day 7): 125 % of control; T/C ([2]; dose: 128.0 mg/kg/injection, schedule: Q01DX009 (ip), vehicle: Klucel (hydroxypropylcellulose) (HPC), evaluated on day 20): 138 % of control; T/C ([2]; dose: 128.0 mg/kg/injection, schedule: Q01DX009 (ip), vehicle: Klucel (hydroxypropylcellulose) (HPC), evaluated on day 30): 141 % of control; T/C ([2]; dose: 128.0 mg/kg/injection, schedule: Q01DX009 (ip), vehicle: other): 130 % of control; T/C ([2]; dose: 180.0 mg/kg/injection, schedule: Q01DX009 (sc), vehicle: Klucel (hydroxypropylcellulose) (HPC)): 140 % of control; T/C ([2]; dose: 180.0 mg/kg/injection, schedule: Q04DX003 (oral), vehicle: Klucel (hydroxypropylcellulose) (HPC), evaluated on day 5): 148 % of control; T/C ([2]; dose: 180.0 mg/kg/injection, schedule: Q04DX003 (sc), vehicle: Klucel (hydroxypropylcellulose) (HPC), evaluated on day 7): 130 % of control; T/C ([2]; dose: 180.0 mg/kg/injection, schedule: Q04DX003 (sc), vehicle: Klucel (hydroxypropylcellulose) (HPC), evaluated on day 30): 133 % of control; T/C ([2]; dose: 200.0 mg/kg/injection, schedule: Q01DX009 (sc), vehicle: steroid suspending solution): 135 % of control; T/C ([2]; dose: 200.0 mg/kg/injection, schedule: Q04DX003 (ip), vehicle: other): 141 % of control; T/C ([2]; dose: 200.0 mg/kg/injection, schedule: Q04DX003 (ip), vehicle: steroid suspending solution): 140 % of control; T/C ([2]; dose: 200.0 mg/kg/injection, schedule: Q04DX003 (sc), vehicle: Klucel (hydroxypropylcellulose) (HPC), evaluated on day 7): 132 % of control; T/C ([2]; dose: 200.0 mg/kg/injection, schedule: Q04DX003 (sc), vehicle: Klucel (hydroxypropylcellulose) (HPC), evaluated on day 30): 125 % of control; T/C ([2]; dose: 200.0 mg/kg/injection, schedule: Q04DX003 (sc), vehicle: steroid suspending solution): 140 % of control; T/C ([2]; dose: 500.0 mg/kg/injection, schedule: Q04DX003 (oral), vehicle: Klucel (hydroxypropylcellulose) (HPC), evaluated on day 5): 137 % of control; T/C ([2]; dose: 500.0 mg/kg/injection, schedule: Q04DX003 (oral), vehicle: Klucel (hydroxypropylcellulose) (HPC), evaluated on day 45): 133 % of control; T/C ([2]; dose: 833.0 mg/kg/injection, schedule: Q04DX003 (sc), vehicle: Klucel (hydroxypropylcellulose) (HPC)): 135 % of control
